Results on 1 sequence are retold here after paper PMC6436931, “Activation of the Endonuclease that Defines mRNA 3′ Ends Requires Incorporation into an 8-Subunit Core Cleavage and Polyadenylation Factor Complex” (Molecular Cell, 2019).

The exact form of at least one protein or probe is not confirmed. A weaker result is weaker than the reference pair of the same experiment. Where a protein sequence is shown, tags need not be part of it.

In the data set the target is T1, Hrp1 (CF IB) (Saccharomyces cerevisiae) (UniProt Q99383).
T1 sequence (looked up, limits assumed): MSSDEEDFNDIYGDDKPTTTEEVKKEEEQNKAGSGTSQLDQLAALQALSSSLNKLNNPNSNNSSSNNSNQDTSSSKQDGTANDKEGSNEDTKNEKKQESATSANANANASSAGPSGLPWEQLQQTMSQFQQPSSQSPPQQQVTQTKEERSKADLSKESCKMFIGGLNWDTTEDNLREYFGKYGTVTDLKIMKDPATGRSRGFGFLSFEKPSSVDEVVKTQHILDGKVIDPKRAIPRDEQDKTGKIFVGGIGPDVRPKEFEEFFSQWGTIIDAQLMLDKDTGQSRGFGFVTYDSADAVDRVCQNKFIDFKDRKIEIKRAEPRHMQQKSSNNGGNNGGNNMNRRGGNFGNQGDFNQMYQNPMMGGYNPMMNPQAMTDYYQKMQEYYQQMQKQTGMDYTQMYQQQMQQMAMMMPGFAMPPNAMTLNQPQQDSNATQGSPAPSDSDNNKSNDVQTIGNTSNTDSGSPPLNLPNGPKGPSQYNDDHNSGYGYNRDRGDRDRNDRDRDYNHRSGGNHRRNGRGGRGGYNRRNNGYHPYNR
Kind of data set: EMSA. To be noted: EMSA: 50 nM RNA, 0.25-4.0 uM protein, protein diluted in 10 mM HEPES pH 7.9, 150 mM NaCl, 0.5 mM Mg(OAc)2, plus 1x loading dye (orange G, glycerol, EDTA); 30 min on ice; recombinant protein; protein details: 6H (6H-Hrp1); label: 5'-FAM. On the technique in general: A gel shift assay detects complexes by their altered migration in electrophoresis.

Regarding AAAAAAAAAAAAAAA [A15], the binding result is “binds more weakly”.
